In the M2OR odorant receptor database:
The list shows a part of the results, in another mix than the full data. The calls were merged from several studies; some rest on single wells. This is one part of the list.

Experiments:
Settings in all cases: stereoisomer not certain
OR5M3 (Homo sapiens) = target: T1, OR5M3 (Homo sapiens) (UniProt Q8NGP4)
T1 sequence (whole entry): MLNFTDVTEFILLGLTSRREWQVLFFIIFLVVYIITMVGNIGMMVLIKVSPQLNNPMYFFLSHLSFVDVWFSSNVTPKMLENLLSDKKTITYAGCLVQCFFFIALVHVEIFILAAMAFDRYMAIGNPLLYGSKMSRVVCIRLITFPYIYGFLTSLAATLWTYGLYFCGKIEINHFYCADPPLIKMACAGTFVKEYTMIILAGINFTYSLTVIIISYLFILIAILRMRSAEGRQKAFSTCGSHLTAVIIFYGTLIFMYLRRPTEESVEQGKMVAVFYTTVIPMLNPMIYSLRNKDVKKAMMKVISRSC
Outline: (§1)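 Assay methods differ from source to source, frequently being transient luciferase assays in mammalian cell lines. For each receptor–molecule pair, the label responsive (active) applies when the original authors judged the measured signal statistically different from baseline, and non-responsive (inactive) applies otherwise.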

OR5M11 (Homo sapiens) = target: T2, OR5M11 (Homo sapiens) (UniProt Q96RB7)
T2 sequence (whole entry): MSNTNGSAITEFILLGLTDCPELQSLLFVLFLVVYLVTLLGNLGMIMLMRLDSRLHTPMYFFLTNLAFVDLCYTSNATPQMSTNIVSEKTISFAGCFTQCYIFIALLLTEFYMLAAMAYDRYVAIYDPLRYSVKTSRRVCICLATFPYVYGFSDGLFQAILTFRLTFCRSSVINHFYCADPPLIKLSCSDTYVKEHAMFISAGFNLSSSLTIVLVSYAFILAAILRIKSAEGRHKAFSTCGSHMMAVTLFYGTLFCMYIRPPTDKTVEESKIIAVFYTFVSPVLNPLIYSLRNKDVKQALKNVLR
Outline: as §1

OR5M1 = tested on: T3, OR5M1
T3 sequence (whole entry): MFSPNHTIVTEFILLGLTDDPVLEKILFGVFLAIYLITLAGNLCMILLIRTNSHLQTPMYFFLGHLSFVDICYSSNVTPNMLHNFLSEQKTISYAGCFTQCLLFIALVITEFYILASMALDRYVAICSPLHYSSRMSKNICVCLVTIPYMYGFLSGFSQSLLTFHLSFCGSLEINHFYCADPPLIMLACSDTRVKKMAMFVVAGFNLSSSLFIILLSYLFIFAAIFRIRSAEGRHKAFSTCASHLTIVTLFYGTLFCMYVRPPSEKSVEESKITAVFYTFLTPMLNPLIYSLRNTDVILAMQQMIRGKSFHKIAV
Outline: as §1

OR5M8 (Homo sapiens) = target: T4, OR5M8 (Homo sapiens) (UniProt Q8NGP6)
T4 sequence (whole entry): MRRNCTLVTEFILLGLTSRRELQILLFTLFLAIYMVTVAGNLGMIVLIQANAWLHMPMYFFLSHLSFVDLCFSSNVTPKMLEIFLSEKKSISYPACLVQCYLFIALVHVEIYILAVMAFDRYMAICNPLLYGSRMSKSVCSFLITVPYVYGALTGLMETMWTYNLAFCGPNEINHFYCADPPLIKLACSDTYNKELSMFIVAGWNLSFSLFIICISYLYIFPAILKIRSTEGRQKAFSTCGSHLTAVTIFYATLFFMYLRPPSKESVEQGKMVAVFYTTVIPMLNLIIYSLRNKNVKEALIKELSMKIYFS
Outline: as §1

OR5M9 (Homo sapiens) = target: T5, OR5M9 (Homo sapiens) (UniProt Q8NGP3)
T5 sequence (whole entry): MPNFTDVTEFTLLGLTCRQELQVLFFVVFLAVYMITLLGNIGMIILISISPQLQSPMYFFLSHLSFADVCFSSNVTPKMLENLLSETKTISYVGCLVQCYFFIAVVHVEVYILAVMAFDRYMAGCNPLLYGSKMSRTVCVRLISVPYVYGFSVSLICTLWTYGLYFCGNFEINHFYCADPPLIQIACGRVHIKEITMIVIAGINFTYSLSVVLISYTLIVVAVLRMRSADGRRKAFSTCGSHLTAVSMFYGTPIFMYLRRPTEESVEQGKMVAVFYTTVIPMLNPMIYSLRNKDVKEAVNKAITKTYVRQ
Outline: as §1

OR5MA = tested on: T6, OR5MA
T6 sequence (whole entry): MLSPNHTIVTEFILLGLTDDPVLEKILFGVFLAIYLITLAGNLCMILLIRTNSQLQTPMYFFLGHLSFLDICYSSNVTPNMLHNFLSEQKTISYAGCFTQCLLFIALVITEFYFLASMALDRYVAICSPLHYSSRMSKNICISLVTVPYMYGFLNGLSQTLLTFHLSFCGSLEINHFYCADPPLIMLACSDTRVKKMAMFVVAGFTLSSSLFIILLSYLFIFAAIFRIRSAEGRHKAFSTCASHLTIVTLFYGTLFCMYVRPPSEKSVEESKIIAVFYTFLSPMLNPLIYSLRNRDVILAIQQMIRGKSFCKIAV
Outline: as §1

OR5P2 (Homo sapiens) = target: T7, OR5P2 (Homo sapiens) (UniProt Q8WZ92)
T7 sequence (whole entry): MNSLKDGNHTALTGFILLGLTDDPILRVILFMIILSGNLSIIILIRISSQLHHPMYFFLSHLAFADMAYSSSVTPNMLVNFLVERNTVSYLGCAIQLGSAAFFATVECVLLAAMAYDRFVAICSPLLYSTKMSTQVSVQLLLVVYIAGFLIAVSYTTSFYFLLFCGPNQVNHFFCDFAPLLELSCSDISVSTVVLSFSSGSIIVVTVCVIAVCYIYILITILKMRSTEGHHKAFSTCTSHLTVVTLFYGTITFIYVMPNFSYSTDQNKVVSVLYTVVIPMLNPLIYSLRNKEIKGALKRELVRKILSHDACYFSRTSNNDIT
Outline: as §1

OR5P3 (Homo sapiens) = target: T8, OR5P3 (Homo sapiens) (UniProt Q8WZ94)
T8 sequence (whole entry): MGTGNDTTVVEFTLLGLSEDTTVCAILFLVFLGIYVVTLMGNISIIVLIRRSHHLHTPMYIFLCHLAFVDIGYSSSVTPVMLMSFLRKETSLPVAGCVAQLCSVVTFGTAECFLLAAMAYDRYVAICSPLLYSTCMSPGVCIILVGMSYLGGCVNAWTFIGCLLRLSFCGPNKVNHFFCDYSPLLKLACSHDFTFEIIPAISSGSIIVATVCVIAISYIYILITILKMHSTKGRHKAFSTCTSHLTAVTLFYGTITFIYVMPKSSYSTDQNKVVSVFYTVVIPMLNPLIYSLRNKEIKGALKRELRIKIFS
Outline: as §1

OR5R1 = tested on: T9, OR5R1
T9 sequence (whole entry): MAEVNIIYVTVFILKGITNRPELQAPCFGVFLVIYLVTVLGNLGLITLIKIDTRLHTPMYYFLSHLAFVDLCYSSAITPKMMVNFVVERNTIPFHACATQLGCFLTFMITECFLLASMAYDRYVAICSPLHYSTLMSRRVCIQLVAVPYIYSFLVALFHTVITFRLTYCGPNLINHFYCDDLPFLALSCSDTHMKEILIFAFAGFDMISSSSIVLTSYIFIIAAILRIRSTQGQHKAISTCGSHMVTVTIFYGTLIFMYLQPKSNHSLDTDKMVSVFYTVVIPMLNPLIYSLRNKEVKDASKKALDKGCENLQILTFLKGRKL
Outline: as §1

OR5T1 (Homo sapiens) = target: T10, OR5T1 (Homo sapiens) (UniProt Q8NG75)
T10 sequence (whole entry): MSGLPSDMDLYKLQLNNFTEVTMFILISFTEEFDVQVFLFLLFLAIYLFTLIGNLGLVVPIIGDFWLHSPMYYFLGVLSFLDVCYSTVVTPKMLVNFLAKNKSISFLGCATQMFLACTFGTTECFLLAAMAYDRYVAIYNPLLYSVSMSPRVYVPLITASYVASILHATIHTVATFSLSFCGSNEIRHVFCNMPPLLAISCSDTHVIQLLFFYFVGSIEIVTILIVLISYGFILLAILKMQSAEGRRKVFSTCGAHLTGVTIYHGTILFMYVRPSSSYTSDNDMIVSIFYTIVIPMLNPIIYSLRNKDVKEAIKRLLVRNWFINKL
Outline: as §1

OR5T1 = tested on: T11, OR5T1
T11 sequence (whole entry): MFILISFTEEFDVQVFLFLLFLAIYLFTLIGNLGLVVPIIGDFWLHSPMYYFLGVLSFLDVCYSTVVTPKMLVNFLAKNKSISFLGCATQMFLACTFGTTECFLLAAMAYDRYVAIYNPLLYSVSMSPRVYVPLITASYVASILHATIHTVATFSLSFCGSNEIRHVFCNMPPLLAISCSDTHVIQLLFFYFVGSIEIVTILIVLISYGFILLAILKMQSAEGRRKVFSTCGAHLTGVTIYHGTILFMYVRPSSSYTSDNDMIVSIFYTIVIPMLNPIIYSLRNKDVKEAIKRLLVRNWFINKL
Outline: as §1

OR5T2 [1] = tested on: T12, OR5T2
T12 sequence (whole entry): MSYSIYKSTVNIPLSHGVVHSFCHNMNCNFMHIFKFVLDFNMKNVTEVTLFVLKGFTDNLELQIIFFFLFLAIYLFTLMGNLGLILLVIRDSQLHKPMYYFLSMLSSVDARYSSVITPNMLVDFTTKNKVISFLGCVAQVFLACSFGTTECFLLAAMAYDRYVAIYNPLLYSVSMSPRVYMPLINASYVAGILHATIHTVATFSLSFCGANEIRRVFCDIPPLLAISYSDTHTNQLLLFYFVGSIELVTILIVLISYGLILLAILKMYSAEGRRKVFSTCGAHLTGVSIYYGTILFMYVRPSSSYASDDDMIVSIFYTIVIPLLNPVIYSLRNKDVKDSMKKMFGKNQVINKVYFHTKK
Outline: as §1

OR5T2 [2] = tested on: T13, OR5T2; remark: listed apart in the source
T13 sequence (whole entry): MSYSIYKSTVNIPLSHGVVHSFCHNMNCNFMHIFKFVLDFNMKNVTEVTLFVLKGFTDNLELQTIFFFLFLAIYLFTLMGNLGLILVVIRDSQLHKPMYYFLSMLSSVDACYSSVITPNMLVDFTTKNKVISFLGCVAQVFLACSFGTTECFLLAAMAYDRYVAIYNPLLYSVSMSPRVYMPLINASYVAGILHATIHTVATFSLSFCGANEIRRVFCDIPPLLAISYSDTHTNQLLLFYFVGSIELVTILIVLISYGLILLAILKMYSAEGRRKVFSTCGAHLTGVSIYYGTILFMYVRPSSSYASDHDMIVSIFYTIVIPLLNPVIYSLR
Outline: as §1

OR5T3 = tested on: T14, OR5T3
T14 sequence (whole entry): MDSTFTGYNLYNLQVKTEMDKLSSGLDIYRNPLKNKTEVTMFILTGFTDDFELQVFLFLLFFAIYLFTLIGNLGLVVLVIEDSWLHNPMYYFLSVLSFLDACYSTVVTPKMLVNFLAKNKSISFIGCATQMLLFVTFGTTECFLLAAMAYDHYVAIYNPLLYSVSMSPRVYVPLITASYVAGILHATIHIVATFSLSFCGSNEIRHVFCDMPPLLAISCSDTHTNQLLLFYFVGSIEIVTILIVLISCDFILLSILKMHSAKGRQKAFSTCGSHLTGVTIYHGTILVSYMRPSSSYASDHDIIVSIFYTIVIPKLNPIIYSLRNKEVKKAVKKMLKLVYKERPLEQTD
Outline: as §1

OR5V1 (Homo sapiens) = target: T15, OR5V1 (Homo sapiens) (UniProt Q9UGF6)
T15 sequence (whole entry): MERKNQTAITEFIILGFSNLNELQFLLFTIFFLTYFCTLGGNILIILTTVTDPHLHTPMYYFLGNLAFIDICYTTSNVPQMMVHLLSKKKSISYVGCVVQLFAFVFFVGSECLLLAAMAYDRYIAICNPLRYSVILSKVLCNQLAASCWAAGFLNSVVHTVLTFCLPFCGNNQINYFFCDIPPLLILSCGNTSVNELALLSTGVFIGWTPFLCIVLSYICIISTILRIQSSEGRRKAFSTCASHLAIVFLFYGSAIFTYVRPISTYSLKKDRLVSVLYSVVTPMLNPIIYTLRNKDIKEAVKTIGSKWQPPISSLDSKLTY
Outline: as §1

OR5W2 = tested on: T16, OR5W2
T16 sequence (whole entry): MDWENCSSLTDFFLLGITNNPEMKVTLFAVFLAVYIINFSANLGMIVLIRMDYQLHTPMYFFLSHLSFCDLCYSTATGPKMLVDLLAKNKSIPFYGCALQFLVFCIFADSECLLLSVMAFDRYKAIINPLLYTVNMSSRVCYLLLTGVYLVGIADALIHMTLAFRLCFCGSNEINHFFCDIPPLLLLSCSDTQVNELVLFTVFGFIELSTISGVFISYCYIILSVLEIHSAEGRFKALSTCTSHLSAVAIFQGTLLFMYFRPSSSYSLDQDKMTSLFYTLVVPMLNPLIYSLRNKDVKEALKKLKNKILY
Outline: as §1

OR6A2 (Homo sapiens) = target: T17, OR6A2 (Homo sapiens) (UniProt O95222)
T17 sequence (whole entry): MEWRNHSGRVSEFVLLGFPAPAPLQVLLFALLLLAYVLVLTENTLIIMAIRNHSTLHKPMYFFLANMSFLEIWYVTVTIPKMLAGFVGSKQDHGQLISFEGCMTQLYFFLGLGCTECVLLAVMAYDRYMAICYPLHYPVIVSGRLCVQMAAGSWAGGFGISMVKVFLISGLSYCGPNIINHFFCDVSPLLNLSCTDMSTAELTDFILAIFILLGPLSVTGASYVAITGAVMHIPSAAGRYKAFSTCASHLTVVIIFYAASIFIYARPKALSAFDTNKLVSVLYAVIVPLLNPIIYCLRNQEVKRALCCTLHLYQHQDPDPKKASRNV
Outline: as §1

Measured: odorant receptor agonist call

C=CCc1ccc(O)c(OC)c1
inactive: OR5M3 (Homo sapiens)

c1ccc(Oc2ccccc2)cc1
not listed: OR5M3 (Homo sapiens)
inactive: all other assays above

CC(C)(C)c1ccc(CCC=O)cc1
not listed: OR5M3 (Homo sapiens)
inactive: all other assays above

CC1COCc2cc3c(cc21)C(C)(C)C(C)C3(C)C (stereo unspecified)
inactive: OR5M11 (Homo sapiens) | OR5MA | OR5P3 (Homo sapiens) | OR5R1 | OR5V1 (Homo sapiens)
not listed: OR5M3 (Homo sapiens)
active: all other assays above

C=C(C)C1CCC2=CC(=O)CC(C)C2(C)C1 (stereo unspecified)
inactive: OR5M11 (Homo sapiens) | OR5MA
